Measured values: the supplement of paper PMC9744312
Counter-ions that a name gives are not always drawn. This is one part of the list. This is a noisy data set.

test system: Peyronie's disease tunica albuginea primary fibroblasts; assay: inhibition of TGF-beta1-induced alpha-SMA expression (myofibroblast transformation), relative to TGF-beta1-only and untreated controls; higher = stronger inhibition of myofibroblast transformation; conditions: 10 µM; TGF-beta1 10 ng/mL; 72 h

| SMILES | inhibition of TGF-beta1-induced alpha-SMA expression |
| --- | --- |
| Cc1cnc(Nc2ccc(OCCN3CCCC3)cc2)nc1Nc1cccc(S(=O)(=O)NC(C)(C)C)c1 | > 100% |
| CC(=O)O[C@]1(C(C)=O)CC[C@H]2[C@@H]3C=C(Cl)C4=CC(=O)CC[C@]4(C)[C@H]3CC[C@@]21C [Chlormadinone acetate] | 19.1% |
| CCCNC(=O)NS(=O)(=O)c1ccc(Cl)cc1 [Chlorpropamide] | 4.62% |
| COc1ccc(Cl)c(Nc2nc3ccccc3nc2NS(=O)(=O)c2cccc(NC(=O)C(C)(C)N)c2)c1 [Pilaralisib (XL147)] | 11.9% |
| Cc1cc(O)c(C(=O)N[C@@H](C(=O)N[C@@H]2C(=O)N3C(C(=O)O)=C(CSc4nnnn4C)CS[C@H]23)c2ccc(O)cc2)cn1 [Cefpiramide sodium] | 26.1% |
| CCCCCOc1ccccc1/C(=C\SC)n1ccnc1 [Neticonazole Hydrochloride] | 44.9% |
| CO[C@H]1/C=C/O[C@@]2(C)Oc3c(C)c(O)c4c(O)c(c5c(nc6cc(C)ccn65)c4c3C2=O)NC(=O)/C(C)=C\C=C\[C@H](C)[C@H](O)[C@@H](C)[C@@H](O)[C@@H](C)[C@H](OC(C)=O)[C@@H]1C [Rifaximin] | -10.1% |
| C[C@]12C=CC(=O)N[C@@H]1CC[C@@H]1[C@@H]2CC[C@]2(C)[C@@H](C(=O)Nc3cc(C(F)(F)F)ccc3C(F)(F)F)CC[C@@H]12 [Dutasteride] | 30.2% |
| Clc1cccc(Cl)c1NC1=NCCN1 [Clonidine HCl] | 11.3% |
| Nc1nc2c(ncn2COC(CO)CO)c(=O)[nH]1 [Ganciclovir] | -7.28% |
| NCCCCCC(=O)O [(6-)ε-?Aminocaproic acid] | 4.61% |
| CN(C)C(=N)NC(=N)N [Metformin HCl] | 2.22% |
| CNCCc1ccccn1 [Betahistine] | 18% |
| CNCCc1ccccn1 [Betahistine 2HCl] | 9.67% |
| CNCCc1ccccn1 [Betahistine mesylate] | 54.3% |
| Cc1nc2c([nH]1)-c1ccccc1N(C(=O)c1ccc(NC(=O)c3ccccc3-c3ccccc3)cc1)CC2 [Conivaptan HCl] | 17.7% |
| CCCNC(C)C(=O)Nc1c(C)csc1C(=O)OC (stereo not drawn) [Articaine HCl] | 5.4% |
| NCCC(O)(P(=O)(O)O)P(=O)(O)O [Pamidronate Disodium] | 26.5% |
| CC(C[N+](C)(C)C)OC(N)=O (stereo not drawn) [Bethanechol chloride] | -8.21% |
| COc1ccc2c(c1)C(=O)N(CCc1ccc(S(=O)(=O)NC(=O)NC3CCCCC3)cc1)C(=O)C2(C)C [Gliquidone] | 11.9% |
| NS(=O)(=O)Cc1noc2ccccc12 [Zonisamide] | 70.5% |
| Cc1cn([C@H]2C[C@H](N=[N+]=[N-])[C@@H](CO)O2)c(=O)[nH]c1=O [Zidovudine] | -4.02% |
| COc1ccc([C@@H]2Sc3ccccc3N(CCN(C)C)C(=O)[C@@H]2OC(C)=O)cc1 [Diltiazem HCl] | -6.13% |
| Cc1ccc(C)c(OCCCC(C)(C)C(=O)O)c1 [Gemfibrozil] | -4.29% |

Taken from above (2 entries):

| SMILES | inhibition of TGF-beta1-induced alpha-SMA expression |
| --- | --- |
| COc1ccc(Cl)c(Nc2nc3ccccc3nc2NS(=O)(=O)c2cccc(NC(=O)C(C)(C)N)c2)c1 [Pilaralisib (XL147)] | 11.9% |
| Cc1cc(O)c(C(=O)N[C@@H](C(=O)N[C@@H]2C(=O)N3C(C(=O)O)=C(CSc4nnnn4C)CS[C@H]23)c2ccc(O)cc2)cn1 [Cefpiramide sodium] | 26.1% |

Continued:

| SMILES | inhibition of TGF-beta1-induced alpha-SMA expression |
| --- | --- |
| O=C(O)C[C@H](O)C[C@H](O)/C=C/c1c(C2CC2)nc2ccccc2c1-c1ccc(F)cc1 [Pitavastatin Calcium] | > 100% |
| O=C(O)/C=C/C(=O)O [Fumaric acid] | 14.7% |
| O=C(CCCN1CCC(O)(c2ccc(Cl)cc2)CC1)c1ccc(F)cc1 [Haloperidol] | 20.3% |
| NCC(=O)CCC(=O)O [5-Aminolevulinic acid HCl] | -10.4% |
| Cc1ccc(Sc2ccccc2N2CCNCC2)c(C)c1 | > 100% |
| Cc1ccc(Sc2ccccc2N2CCNCC2)c(C)c1 [Vortioxetine] | > 100% |
| O=C(O)c1ccc(-n2nc(-c3ccccc3O)nc2-c2ccccc2O)cc1 [Deferasirox] | 39.9% |
| CC(C)C[C@H](NC(=O)CNC(=O)[C@H](Cc1ccc(O)cc1)NC(=O)[C@H](CO)NC(=O)[C@H](Cc1c[nH]c2ccccc12)NC(=O)[C@H](Cc1cnc[nH]1)NC(=O)[C@@H]1CCC(=O)N1)C(=O)N[C@@H](CCCNC(=N)N)C(=O)N1CCC[C@H]1C(=O)NCC(N)=O [Gonadorelin Acetate] | 16.2% |
| COC(=O)CCc1ccc(OCC(O)CNC(C)C)cc1 (stereo not drawn) [Esmolol HCl] | -19.9% |
| COc1c(C)c2c(c(O)c1C/C=C(\C)CCC(=O)OCCN1CCOCC1)C(=O)OC2 [Mycophenolate Mofetil] | 12.4% |
| CN1C(C(=O)Nc2ccccn2)=C(O)c2ccccc2S1(=O)=O [Piroxicam] | 22.9% |
| NCCS [Cysteamine HCl] | -16.9% |
| COCCOC(=O)C1=C(C)NC(C)=C(C(=O)OC(C)C)C1c1cccc([N+](=O)[O-])c1 (stereo not drawn) [Nimodipine] | 23.6% |
| CC1(C)[C@@H](O)CC[C@]2(C)[C@H]3C(=O)C=C4[C@@H]5C[C@@](C)(C(=O)O)CC[C@]5(C)CC[C@@]4(C)[C@]3(C)CC[C@@H]12 [Enoxolone] | 7.54% |
| O=C(O)c1ccc(NC(=O)[C@H](Cc2ccc(O)cc2)NC(=O)c2ccccc2)cc1 [Bentiromide] | 15% |
| c1cc(CN2CCCNCCNCCCNCC2)ccc1CN1CCCNCCNCCCNCC1 [Plerixafor (AMD3100)] | 10.8% |
| c1cc(CN2CCCNCCNCCCNCC2)ccc1CN1CCCNCCNCCCNCC1 [Plerixafor 8HCl (AMD3100 8HCl)] | 3.64% |
| COc1ccc2c3c1O[C@H]1C[C@@H](O)C=C[C@@]31CCN(C)C2 [Galanthamine HBr] | -9.48% |
| CC1(C)S[C@@H]2[C@H](NC(=O)COc3ccccc3)C(=O)N2[C@H]1C(=O)O [Penicillin V potassium salt] | 0.304% |
| Cc1cc(C#N)cc(C)c1Oc1nc(Nc2ccc(C#N)cc2)nc(N)c1Br [Etravirine (TMC125)] | 39.1% |
| Cc1nnc(SCC2=C(C(=O)O)N3C(=O)[C@@H](NC(=O)Cn4cnnn4)[C@H]3SC2)s1 [Cefazolin Sodium] | -9.51% |
| O=c1[nH]c(=O)n([C@H]2C[C@H](O)[C@@H](CO)O2)cc1C(F)(F)F [Trifluridine] | -6.83% |
| S=c1[nH]cnc2nc[nH]c12 [Mercaptopurine (6-MP)] | -5.49% |
| Cc1ccccc1C(=O)Nc1ccc(C(=O)N2CCCC(N(C)C)c3ccccc32)cc1 (stereo not drawn) [Mozavaptan] | 37.6% |
